Results as given in patent publication US20210284749A1.
Numbering of substitutions follows the chain as printed. These are yes or no findings as the source states them, for the method shown. Some results given as binding are weak or reduced against the parent protein; the word gives no strength.

Chains of the proteins cited; added tags and fusions are not shown. Lines headed by an entry give the natural chain unless they say otherwise; changes in a name come on top.
UniProt Q02223: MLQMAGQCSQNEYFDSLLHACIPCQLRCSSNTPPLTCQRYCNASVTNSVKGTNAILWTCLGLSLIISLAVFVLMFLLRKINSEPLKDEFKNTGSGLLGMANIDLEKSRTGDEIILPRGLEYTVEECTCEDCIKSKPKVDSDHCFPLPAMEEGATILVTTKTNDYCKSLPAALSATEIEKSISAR

B1: mutant antibody 5A6 LM1 (antibody, V domains shown)
VH: EVQLLESGGGLVQPGGSLRLSCAASGFTFSNYGVHWVRQAPGKGLEWVSYISYSGGTYYNPSLKSRFTISRDNSKNTLYLQMNSLRAEDTAVYYCARDSDDFGFDYWGQGTLVTVSS
VL: QSVLTQPPSASGTPGQRVTISCQGESLRSYYVNWYQQLPGTAPKLLIYDHSKRPTGVPDRFSGSKSGTSASLAISGLRSEDEADYYCQSYDSSTVVFGGGTKLTVLG
B2: mutant antibody 5A6 LM3 (antibody, V domains shown)
VH: B1 VH
VL: B1 VL with E25D, D91E
B3: mutant antibody 5A6 LM4 (antibody, V domains shown)
VH: B1 VH
VL: B1 VL with E25D, S92A
B4: mutant antibody 5A6 LM5 (antibody, V domains shown)
VH: B1 VH
VL: B1 VL with D91E
B5: mutant antibody 5A6 LM7 (antibody, V domains shown)
VH: B1 VH
VL: B1 VL with E25D, S26A, D91E
B6: mutant antibody 5A6 LM8 (antibody, V domains shown)
VH: B1 VH
VL: B1 VL with E25D, S26A, S92A
B7: mutant antibody 5A6 LM2 (antibody, V domains shown)
VH: B1 VH
VL: B1 VL with E25D, S26A
B8: mutant antibody 5D5 LM1 (antibody, V domains shown)
VH: EVQLLESGGGLVQPGGSLRLSCAASGFTFSDYGLSWVRQAPGKGLEWVSLIDSSGSSTFYADSVKGRFTISRDNSKNTLYLQMNSLRAEDTAVYYCAKEHGLFDSWGQGTLVTVSS
VL: EIVLTQSPGTLSLSPGERATLSCKASQDIDNDINWYQQKPGQAPRLLIYDASLRATGIPDRFSGSGSGTDFTLTISRLEPEDFAVYYCQQSLRTPITFGQGTKLEIKR
B9: mutant antibody 5D5 LM2 (antibody, V domains shown)
VH: B8 VH
VL: B8 VL with N31E
B10: mutant antibody 5D5 LM3 (antibody, V domains shown)
VH: B8 VH
VL: B8 VL with N31A
B11: mutant antibody 5D5 LM5 (antibody, V domains shown)
VH: B8 VH
VL: B8 VL with N31D, D32E
B12: anti-BCMA IgG antibody 2C6 (antibody, V domains shown)
VH: EVQLLESGGGLVQPGGSLRLSCAASGFTFSNYGMSWVRQAPGKGLEWVSSIDYNGSTYYNPSLKSRFTISRDNSKNTLYLQMNSLRAEDTAVYYCAKEHGLFDSWGQGTLVTVSS
VL: EIVLTQSPGTLSLSPGERATLSCRVSQSISSYLNWYQQKPGQAPRLLIYDASTRAIGIPDRFSGSGSGTDFTLTISRLEPEDFAVYYCQQVNSYPITFGQGTKVEIKR
B13: anti-BCMA IgG antibody 5C3 (antibody, V domains shown)
VH: EVQLLESGGGLVQPGGSLRLSCAASGFTFSDYYIHWVRQAPGKGLEWVSAISGSGGSTYYADSVKGRFTISRDNSKNTLYLQMNSLRAEDTAVYYCASDLGDTTFDSWGQGTLVTVSS
VL: EIVLTQSPGTLSLSPGERATLSCQASDDISNYLNWYQQKPGQAPRLLIYGVSNRASGIPDRFSGSGSGTDFTLTISRLEPEDFAVYYCQQSYSTPPITFGQGTKLEIKR
B14: anti-BCMA IgG antibody 4H9 (antibody, V domains shown)
VH: EVQLLESGGGLVQPGGSLRLSCAASGFTFSGYSMSWVRQAPGKGLEWVSSIYHTGYTYYNPSLKSRFTISRDNSKNTLYLQMNSLRAEDTAVYYCARYKSGAFDIWGQGTLVTVSS
VL: EIVLTQSPGTLSLSPGERATLSCRASQSVSRNLAWYQQKPGQAPRLLIYGVSSRATGIPDRFSGSGSGTDFTLTISRLEPEDFAVYYCQQYGSSPPTFGQGTKVEIKR
B15: anti-BCMA IgG antibody 2G (antibody, V domains shown)
VH: EVQLVESGGGLVQPGGSLRLSCAASGFTFSNYAMSWVRQAPGKGLEWVSAISSSGSTIYYADSVKGRFTISRDNSKNTLYLQMNSLRAEDTAVYYCAKAGYYGSIYAFDYWGQGTLVTVSS
VL: DIQMTQSPSSLSASVGDRVTITCRASQSISSYLNWYQQKPGKAPKLLIYATSRLQSGVPSRFSGSGSGTDFTLTISSLQPEDFATYYCQQSSSFPWTFGQGTKVEIKR
B16: single clone phage antibody B58 (scFv on phage) (scFv, V domains shown)
VH: EVQLLESGGGLVQPGGSLRLSCAASGFTFSNYDMSWVRQAPGKGLEWVSWIYPSDSSIYYADSVKGRFTISRDNSKNTLYLQMNSLRAEDTAVYYCARGPFANKYRQFDYWGQGTLVTVSS
VL: QSVLTQPPSASGTPGQRVTISCSGSSSNIGSNSVSWYQQLPGTAPKLLIYADSKRPSGVPDRFSGSKSGTSASLAISGLRSEDEADYYCGSWDYSLSGYVFGGGTKLTVL
B17: single clone phage antibody 5C3 (scFv on phage) (scFv, V domains shown)
VH: B13 VH
VL: B13 VL
B18: single clone phage antibody 5A6 (scFv on phage) (scFv, V domains shown)
VH: B1 VH
VL: B1 VL with E25D
B19: single clone phage antibody 5D5 (scFv on phage) (scFv, V domains shown)
VH: B8 VH
VL: B8 VL with N31D
B20: single clone phage antibody 5B5 (scFv on phage) (scFv, V domains shown)
VH: EVQLLESGGGLVQPGGSLRLSCAASGFTFSGHYWSWVRQAPGKGLEWVSTVSGSGGDTFYADSVKGRFTISRDNSKNTLYLQMNSLRAEDTAVYYCARGHSVMDVWGQGTLVTVSS
VL: B8 VL with K24R, D28G, N31S, D32Y, I33V, N34A, S91Y, L92N, R93S, T94W
B21: single clone phage antibody 2C6 (scFv on phage) (scFv, V domains shown)
VH: B12 VH
VL: B12 VL
B22: single clone phage antibody 4H9 (scFv on phage) (scFv, V domains shown)
VH: B14 VH
VL: B14 VL
B23: single clone phage antibody 2G (scFv on phage) (scFv, V domains shown)
VH: B15 VH
VL: B15 VL

Biological target: recombinant human BCMA (ELISA antigen, construct not specified) (human) (UniProt Q02223)
Test: ELISA on recombinant BCMA

| Binder | binding |
| --- | --- |
| B1 | binds |
| B2 | binds |
| B3 | binds |
| B4 | binds |
| B5 | binds |
| B6 | binds |
| B7 | binds |
| B8 | binds |
| B9 | binds |
| B10 | binds |
| B11 | binds |

Biological target: recombinant human BCMA (ELISA antigen, construct not specified) (human) (UniProt Q02223)
Test: ELISA, coated recombinant antigen, IgG titrated

| Binder | binding |
| --- | --- |
| B12 | binds |
| B13 | binds |
| B14 | binds |
| B15 | binds |

Biological target: recombinant human BCMA (ELISA antigen, construct not specified) (human) (UniProt Q02223)
Test: single clone phage ELISA, coated recombinant BCMA

| Binder | binding |
| --- | --- |
| B16 | binds |
| B17 | binds |
| B18 | binds |
| B19 | binds |
| B20 | binds |
| B21 | binds |
| B22 | binds |
| B23 | binds |

Biological target: recombinant human BCMA (ELISA antigen, construct not specified) (human) (UniProt Q02223)
Test: ELISA on coated recombinant human BCMA, antibody titrated, HRP anti-Fab detection, absorbance 450 nm

| Binder | binding |
| --- | --- |
| B12 | binds |
| B13 | binds |
| B14 | binds |
| B15 | binds |
